According to article PMC6465247:
These are yes or no findings as the source states them, for the method shown. Binding seen in cells or lysates may run through a third protein. Some entries that bind do so weakly or less than the wild type. Where a sequence is shown, tags or fusion partners need not be part of it.

What was measured:
[1] = target: T1, PDS5D, BiFC fusion (Arabidopsis thaliana) (UniProt A8MRD9); test: split reporter; BiFC and ratiometric BiFC (pBiFC-2in1-NN, YFP against RFP as reference) in tobacco leaves after Agrobacterium infiltration; imaged 2 days after infiltration
T1 sequence: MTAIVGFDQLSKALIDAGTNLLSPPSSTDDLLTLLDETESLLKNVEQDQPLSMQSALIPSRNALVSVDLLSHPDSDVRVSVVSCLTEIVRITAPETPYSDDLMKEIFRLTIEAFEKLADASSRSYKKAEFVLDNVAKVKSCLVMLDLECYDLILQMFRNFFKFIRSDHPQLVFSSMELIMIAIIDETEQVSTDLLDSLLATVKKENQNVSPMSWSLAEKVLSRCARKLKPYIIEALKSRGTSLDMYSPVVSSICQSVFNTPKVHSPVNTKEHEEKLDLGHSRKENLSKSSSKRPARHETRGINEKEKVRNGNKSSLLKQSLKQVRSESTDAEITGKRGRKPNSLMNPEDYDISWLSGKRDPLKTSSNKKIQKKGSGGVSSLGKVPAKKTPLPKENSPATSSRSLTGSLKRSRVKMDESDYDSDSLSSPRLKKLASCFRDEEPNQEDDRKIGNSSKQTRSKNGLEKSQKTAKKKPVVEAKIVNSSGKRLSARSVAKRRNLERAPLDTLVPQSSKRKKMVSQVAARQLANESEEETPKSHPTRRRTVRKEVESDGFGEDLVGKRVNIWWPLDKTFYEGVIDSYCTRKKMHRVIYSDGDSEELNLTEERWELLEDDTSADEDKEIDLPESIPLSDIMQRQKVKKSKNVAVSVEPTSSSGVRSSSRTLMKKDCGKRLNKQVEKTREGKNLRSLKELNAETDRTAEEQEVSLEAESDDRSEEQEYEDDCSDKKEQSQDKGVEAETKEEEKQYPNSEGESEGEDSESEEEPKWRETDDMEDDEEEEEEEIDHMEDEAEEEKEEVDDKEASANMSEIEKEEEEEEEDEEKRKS

[2] = target: T2, PDS5E, BiFC fusion (Arabidopsis thaliana) (UniProt Q9S9P0); test: as above
T2 sequence: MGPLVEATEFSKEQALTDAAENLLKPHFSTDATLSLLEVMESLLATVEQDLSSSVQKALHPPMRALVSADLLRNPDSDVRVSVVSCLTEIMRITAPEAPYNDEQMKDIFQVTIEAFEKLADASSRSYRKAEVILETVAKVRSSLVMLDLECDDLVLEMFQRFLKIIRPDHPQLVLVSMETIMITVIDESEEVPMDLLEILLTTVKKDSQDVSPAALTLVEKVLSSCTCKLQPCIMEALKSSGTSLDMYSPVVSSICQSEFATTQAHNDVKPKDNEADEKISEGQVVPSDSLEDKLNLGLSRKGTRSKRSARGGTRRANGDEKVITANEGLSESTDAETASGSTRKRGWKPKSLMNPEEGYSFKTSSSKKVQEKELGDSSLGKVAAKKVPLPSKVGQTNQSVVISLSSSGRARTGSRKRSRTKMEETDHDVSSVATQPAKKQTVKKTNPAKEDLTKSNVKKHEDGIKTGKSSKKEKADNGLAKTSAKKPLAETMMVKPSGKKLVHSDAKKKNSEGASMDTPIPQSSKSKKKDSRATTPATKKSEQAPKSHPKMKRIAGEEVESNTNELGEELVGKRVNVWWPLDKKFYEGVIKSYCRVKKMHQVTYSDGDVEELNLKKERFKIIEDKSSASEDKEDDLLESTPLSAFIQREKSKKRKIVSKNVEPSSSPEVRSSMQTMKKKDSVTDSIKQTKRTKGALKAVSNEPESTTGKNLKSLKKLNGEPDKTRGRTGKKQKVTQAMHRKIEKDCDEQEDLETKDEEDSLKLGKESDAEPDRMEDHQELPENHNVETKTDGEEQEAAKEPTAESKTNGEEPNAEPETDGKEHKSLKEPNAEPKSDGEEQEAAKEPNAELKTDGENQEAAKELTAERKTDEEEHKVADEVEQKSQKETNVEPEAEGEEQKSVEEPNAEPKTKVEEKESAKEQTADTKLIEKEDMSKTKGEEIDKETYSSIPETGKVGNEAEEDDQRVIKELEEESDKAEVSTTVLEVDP

binding [1]: binds weakly
binding [2]: binds
B1: SWI1, BiFC fusion (protein, UniProt Q9FGN8 1-639)
chain: MSSTMFVKRNPIRETTAGKISSPSSPTLNVAVAHIRAGSYYEIDASILPQRSPENLKSIRVVMVSKITASDVSLRYPSMFSLRSHFDYSRMNRNKPMKKRSGGGLLPVFDESHVMASELAGDLLYRRIAPHELSMNRNSWGFWVSSSSRRNKFPRREVVSQPAYNTRLCRAASPEGKCSSELKSGGMIKWGRRLRVQYQSRHIDTRKNKEGEESSRVKDEVYKEEEMEKEEDDDDGNEIGGTKQEAKEITNGNRKRKLIESSTERLAQKAKVYDQKKETQIVVYKRKSERKFIDRWSVERYKLAERNMLKVMKEKNAVFGNSILRPELRSEARKLIGDTGLLDHLLKHMAGKVAPGGQDRFMRKHNADGAMEYWLESSDLIHIRKEAGVKDPYWTPPPGWKLGDNPSQDPVCAGEIRDIREELASLKRELKKLASKKEEEELVIMTTPNSCVTSQNDNLMTPAKEIYADLLKKKYKIEDQLVIIGETLRKMEEDMGWLKKTVDENYPKKPDSTETPLLLEDSPPIQTLEGEVKVVNKGNQITESPQNREKGRKHDQQERSPLSLISNTGFRICRPVGMFAWPQLPALAAATDTNASSPSHRQAYPSPFPVKPLAAKRPLGLTFPFTIIPEEAPKNLFNV
